Experimental findings from publication PMC4041461 are described below.

For part of these data: Weaker means in comparison with the reference protein, sequence or condition of that experiment. For part of these data: For at least one entry, the source does not settle the construct or the ends of the probe. For part of these data: At least one result comes from cells or an extract, where the contact may be indirect. For part of these data: No signal at the amounts used counts as a negative.

The target of one data set is SRSF1 (Homo sapiens) (UniProt Q07955). Description: SPR. Particulars: 100 nM RNA; 3' biotin; SPR: 25 °C, 1:10 mixture of binding buffer (10 mM Tris-HCl pH 7.5, 150 mM KCl) and HBS-EP (10 mM HEPES pH 7.4, 150 mM NaCl, 3 mM EDTA, 0.005% P20), protein immobilized; recombinant protein; protein details: N-terminal His-tag (pET28a); label: biotin.
The target in a further data set is EFHD2 (Homo sapiens) (UniProt Q96C19). In words: SPR. Particulars: 100 nM RNA; 3' biotin; SPR: 25 °C, 1:10 mixture of binding buffer (10 mM Tris-HCl pH 7.5, 150 mM KCl) and HBS-EP (10 mM HEPES pH 7.4, 150 mM NaCl, 3 mM EDTA, 0.005% P20), protein immobilized; recombinant protein; protein details: N-terminal His-tag (pET28a); label: biotin.
The next data set addresses RPS5 (Homo sapiens) (UniProt P46782). Description: pull-down. To be noted: 3' biotin; pull-down: RNA on streptavidin beads blocked in 10 mM Tris-HCl pH 7.5, 100 mM KCl, 0.1 mM EDTA, 1 mM DTT, 0.01% Triton X-100, BSA, tRNA; extract 1 h at 30 °C; protein in an extract; label: biotin.
In the next data set the target is hnRNPA3 (Homo sapiens) (UniProt P51991). In words: pull-down. Particulars: 3' biotin; pull-down: RNA on streptavidin beads blocked in 10 mM Tris-HCl pH 7.5, 100 mM KCl, 0.1 mM EDTA, 1 mM DTT, 0.01% Triton X-100, BSA, tRNA; extract 1 h at 30 °C; protein in an extract; label: biotin.
Another data set concerns the target YB-1 (Homo sapiens) (UniProt P67809). In words: pull-down. To be noted: 3' biotin; pull-down: RNA on streptavidin beads blocked in 10 mM Tris-HCl pH 7.5, 100 mM KCl, 0.1 mM EDTA, 1 mM DTT, 0.01% Triton X-100, BSA, tRNA; extract 1 h at 30 °C; protein in an extract; label: biotin.
A further data set addresses hnRNPU (Homo sapiens) (UniProt Q00839). In words: pull-down. Particulars: 3' biotin; pull-down: RNA on streptavidin beads blocked in 10 mM Tris-HCl pH 7.5, 100 mM KCl, 0.1 mM EDTA, 1 mM DTT, 0.01% Triton X-100, BSA, tRNA; extract 1 h at 30 °C; protein in an extract; label: biotin.
For data set [1], the target named is U2AF65 (native) (Homo sapiens) (UniProt P26368). In words: pull-down. To be noted: 3' biotin; pull-down: RNA on streptavidin beads blocked in 10 mM Tris-HCl pH 7.5, 100 mM KCl, 0.1 mM EDTA, 1 mM DTT, 0.01% Triton X-100, BSA, tRNA; extract 1 h at 30 °C; protein in an extract; label: biotin.
Another data set concerns Actin (Homo sapiens). In words: pull-down. To be noted: 3' biotin; pull-down: RNA on streptavidin beads blocked in 10 mM Tris-HCl pH 7.5, 100 mM KCl, 0.1 mM EDTA, 1 mM DTT, 0.01% Triton X-100, BSA, tRNA; extract 1 h at 30 °C; protein in an extract; label: biotin.
Data set [2] addresses NAD-dependent malic enzyme, mitochondrial (ME2) (Homo sapiens) (UniProt P23368). In words: pull-down. Particulars: 3' biotin; pull-down: RNA on streptavidin beads blocked in 10 mM Tris-HCl pH 7.5, 100 mM KCl, 0.1 mM EDTA, 1 mM DTT, 0.01% Triton X-100, BSA, tRNA; extract 1 h at 30 °C; protein in an extract; label: biotin.
The target of data set [3] is Δnucleolin del1-283 (Homo sapiens) (UniProt P19338). Description: SPR. Particulars: similar to ARPC2 mut; 3' biotin; SPR: 25 °C, 1:10 mixture of binding buffer (10 mM Tris-HCl pH 7.5, 150 mM KCl) and HBS-EP (10 mM HEPES pH 7.4, 150 mM NaCl, 3 mM EDTA, 0.005% P20), protein immobilized; recombinant protein; residues 284-710; protein details: N-terminal His-tag (pET28a); label: biotin.

The test system of the next data set is YB-1 + Actin. Description: pull-down. To be noted: band g; 3' biotin; pull-down: RNA on streptavidin beads blocked in 10 mM Tris-HCl pH 7.5, 100 mM KCl, 0.1 mM EDTA, 1 mM DTT, 0.01% Triton X-100, BSA, tRNA; extract 1 h at 30 °C; protein in an extract; label: biotin.

Take AACGAGGGAGGGAGGGAGAGGGAGAGA [MMP16 GQ]: the binding result with SRSF1 (Homo sapiens) was “binds more weakly”; with EFHD2 (Homo sapiens), “binds more weakly”; with RPS5 (Homo sapiens), “binds”; with hnRNPA3 (Homo sapiens), “no binding”; with YB-1 (Homo sapiens), “binds”; with hnRNPU (Homo sapiens), “binds”. For the same sequence, the binding result (in data set [1]; with Actin (Homo sapiens); in data set [2]) was “binds” throughout.

For “AGCCGUAGACUGGGCGAAGACCGGGCUUGU [ARPC2-2xG]”, the values for the binding result (in data set [3]; in the data set with YB-1 (Homo sapiens); in the data set with YB-1 + Actin) were “binds more weakly”, “binds” and “binds”, respectively.
